{"source": "ChEMBL document CHEMBL4316593", "about": "(Eur J Med Chem, 2019)", "assay_type_in_all_cases": "cell-based", "settings_in_all_cases": "U-87MG ATCC", "key": {"[1]": {"experiment": "Inhibition of RTK/PI3K/AKT/mTOR signaling in human U87 cells assessed as up regulation of serologically defined colon cancer antigen 3 gene expression at cytotoxic IC50 measured after 48 hrs relative to control"}, "[2]": {"experiment": "Inhibition of RTK/PI3K/AKT/mTOR signaling in human U87 cells assessed as down regulation of CHCHD7 gene expression at cytotoxic IC50 measured after 48 hrs relative to control"}, "[3]": {"experiment": "Inhibition of RTK/PI3K/AKT/mTOR signaling in human U87 cells assessed as down regulation of EXOG gene expression at cytotoxic IC50 measured after 48 hrs relative to control"}, "[4]": {"experiment": "Inhibition of RTK/PI3K/AKT/mTOR signaling in human U87 cells assessed as down regulation of CDCA7 gene expression at cytotoxic IC50 measured after 48 hrs relative to control"}, "[5]": {"experiment": "Inhibition of RTK/PI3K/AKT/mTOR signaling in human U87 cells assessed as down regulation of ITFG1 gene expression at cytotoxic IC50 measured after 48 hrs relative to control"}, "[6]": {"experiment": "Inhibition of RTK/PI3K/AKT/mTOR signaling in human U87 cells assessed as up regulation of forkhead box D1 gene expression at cytotoxic IC50 measured after 48 hrs relative to control"}, "[7]": {"experiment": "Inhibition of RTK/PI3K/AKT/mTOR signaling in human U87 cells assessed as up regulation of chromosome 4 open reading frame 32 gene expression at cytotoxic IC50 measured after 48 hrs relative to control"}, "[8]": {"experiment": "Inhibition of RTK/PI3K/AKT/mTOR signaling in human U87 cells assessed as up regulation of CASC8 gene expression at cytotoxic IC50 measured after 48 hrs relative to control"}, "[9]": {"experiment": "Inhibition of RTK/PI3K/AKT/mTOR signaling in human U87 cells assessed as up regulation of SLC38A5 gene expression at cytotoxic IC50 measured after 48 hrs relative to control"}, "[10]": {"experiment": "Inhibition of RTK/PI3K/AKT/mTOR signaling in human U87 cells assessed as up regulation of solute carrier family 25 member 23 gene expression at cytotoxic IC50 measured after 48 hrs relative to control"}, "[11]": {"experiment": "Inhibition of RTK/PI3K/AKT/mTOR signaling in human U87 cells assessed as down regulation of FOSB gene expression at cytotoxic IC50 measured after 48 hrs relative to control"}, "[12]": {"experiment": "Inhibition of RTK/PI3K/AKT/mTOR signaling in human U87 cells assessed as down regulation of ANKRD52 gene expression at cytotoxic IC50 measured after 48 hrs relative to control"}, "[13]": {"experiment": "Inhibition of RTK/PI3K/AKT/mTOR signaling in human U87 cells assessed as up regulation of protein tyrosine kinase 7 (inactive) gene expression at cytotoxic IC50 measured after 48 hrs relative to control"}, "[14]": {"experiment": "Inhibition of RTK/PI3K/AKT/mTOR signaling in human U87 cells assessed as down regulation of CTNNB1 gene expression at cytotoxic IC50 measured after 48 hrs relative to control"}, "[15]": {"experiment": "Inhibition of RTK/PI3K/AKT/mTOR signaling in human U87 cells assessed as down regulation of CXCL8 gene expression at cytotoxic IC50 measured after 48 hrs relative to control"}, "[16]": {"experiment": "Inhibition of RTK/PI3K/AKT/mTOR signaling in human U87 cells assessed as down regulation of UBE2T gene expression at cytotoxic IC50 measured after 48 hrs relative to control"}, "[17]": {"experiment": "Inhibition of RTK/PI3K/AKT/mTOR signaling in human U87 cells assessed as down regulation of TMTC3 gene expression at cytotoxic IC50 measured after 48 hrs relative to control"}, "[18]": {"experiment": "Inhibition of RTK/PI3K/AKT/mTOR signaling in human U87 cells assessed as down regulation of PGM2L1 gene expression at cytotoxic IC50 measured after 48 hrs relative to control"}, "[19]": {"experiment": "Inhibition of RTK/PI3K/AKT/mTOR signaling in human U87 cells assessed as up regulation of pyroglutamyl-peptidase I gene expression at cytotoxic IC50 measured after 48 hrs relative to control"}, "[20]": {"experiment": "Inhibition of RTK/PI3K/AKT/mTOR signaling in human U87 cells assessed as up regulation of CHST1 gene expression at cytotoxic IC50 measured after 48 hrs relative to control"}, "[21]": {"experiment": "Inhibition of RTK/PI3K/AKT/mTOR signaling in human U87 cells assessed as down regulation of DPYSL3 gene expression at cytotoxic IC50 measured after 48 hrs relative to control"}, "[22]": {"experiment": "Inhibition of RTK/PI3K/AKT/mTOR signaling in human U87 cells assessed as up regulation of beta-1,4-galactosyltransferase 2 gene expression at cytotoxic IC50 measured after 48 hrs relative to control"}, "[23]": {"experiment": "Inhibition of RTK/PI3K/AKT/mTOR signaling in human U87 cells assessed as up regulation of retinoid X receptor alpha gene expression at cytotoxic IC50 measured after 48 hrs relative to control"}, "[24]": {"experiment": "Inhibition of RTK/PI3K/AKT/mTOR signaling in human U87 cells assessed as up regulation of 1-acylglycerol-3-phosphate O-acyltransferase 1 gene expression at cytotoxic IC50 measured after 48 hrs relative to control"}, "[25]": {"experiment": "Inhibition of RTK/PI3K/AKT/mTOR signaling in human U87 cells assessed as down regulation of C1orf52 gene expression at cytotoxic IC50 measured after 48 hrs relative to control"}, "[26]": {"experiment": "Inhibition of RTK/PI3K/AKT/mTOR signaling in human U87 cells assessed as down regulation of VCPIP1 gene expression at cytotoxic IC50 measured after 48 hrs relative to control"}, "[27]": {"experiment": "Inhibition of RTK/PI3K/AKT/mTOR signaling in human U87 cells assessed as down regulation of BUB1 gene expression at cytotoxic IC50 measured after 48 hrs relative to control"}, "[28]": {"experiment": "Inhibition of RTK/PI3K/AKT/mTOR signaling in human U87 cells assessed as down regulation of ABCB1 gene expression at cytotoxic IC50 measured after 48 hrs relative to control"}, "[29]": {"experiment": "Inhibition of RTK/PI3K/AKT/mTOR signaling in human U87 cells assessed as down regulation of BTG1 gene expression at cytotoxic IC50 measured after 48 hrs relative to control"}, "[30]": {"experiment": "Inhibition of RTK/PI3K/AKT/mTOR signaling in human U87 cells assessed as up regulation of SH3 domain binding protein 4 gene expression at cytotoxic IC50 measured after 48 hrs relative to control"}, "[31]": {"experiment": "Inhibition of RTK/PI3K/AKT/mTOR signaling in human U87 cells assessed as up regulation of ELP3 gene expression at cytotoxic IC50 measured after 48 hrs relative to control"}, "[32]": {"experiment": "Inhibition of RTK/PI3K/AKT/mTOR signaling in human U87 cells assessed as down regulation of NR4A3 gene expression at cytotoxic IC50 measured after 48 hrs relative to control"}}, "note": "This continues a long series; more values of the same kind are listed elsewhere.", "data": [{"smiles": "CC(=O)C(=NNc1ccccc1C#N)C(C)=O", "values": [{"measurement": "log2FC", "setting": "[1]", "result": 0.7}, {"measurement": "log2FC", "setting": "[2]", "result": -1.09}, {"measurement": "log2FC", "setting": "[3]", "result": -1.72}, {"measurement": "log2FC", "setting": "[4]", "result": -1.44}, {"measurement": "log2FC", "setting": "[5]", "result": -0.718}, {"measurement": "log2FC", "setting": "[6]", "result": 0.903}, {"measurement": "log2FC", "setting": "[7]", "result": 0.746}, {"measurement": "log2FC", "setting": "[8]", "result": 1.7}, {"measurement": "log2FC", "setting": "[9]", "result": 2.56}, {"measurement": "log2FC", "setting": "[10]", "result": 0.865}, {"measurement": "log2FC", "setting": "[11]", "result": -1.27}, {"measurement": "log2FC", "setting": "[12]", "result": -0.477}, {"measurement": "log2FC", "setting": "[13]", "result": 0.852}, {"measurement": "log2FC", "setting": "[14]", "result": -0.667}, {"measurement": "log2FC", "setting": "[15]", "result": -2.26}, {"measurement": "log2FC", "setting": "[16]", "result": -0.956}, {"measurement": "log2FC", "setting": "[17]", "result": -0.742}, {"measurement": "log2FC", "setting": "[18]", "result": -0.998}, {"measurement": "log2FC", "setting": "[19]", "result": 1.18}, {"measurement": "log2FC", "setting": "[20]", "result": 2.28}, {"measurement": "log2FC", "setting": "[21]", "result": -2.76}, {"measurement": "log2FC", "setting": "[22]", "result": 1.32}, {"measurement": "log2FC", "setting": "[23]", "result": 0.956}, {"measurement": "log2FC", "setting": "[24]", "result": 1.32}, {"measurement": "log2FC", "setting": "[25]", "result": -0.619}, {"measurement": "log2FC", "setting": "[26]", "result": -0.619}, {"measurement": "log2FC", "setting": "[27]", "result": -0.596}, {"measurement": "log2FC", "setting": "[28]", "result": -1.61}, {"measurement": "log2FC", "setting": "[29]", "result": -0.512}, {"measurement": "log2FC", "setting": "[30]", "result": 1.06}, {"measurement": "log2FC", "setting": "[31]", "result": 0.632}, {"measurement": "log2FC", "setting": "[32]", "result": -2.4}]}]}
